Source: the supplement of paper PMC11006884
The entries are a selection whose mix differs from that of the whole data set.

Sequences of proteins named here, by UniProt entry; tags and fusion partners are left off. A change or cut given only in a name is not applied to a line headed by its entry.
UniProt P09110: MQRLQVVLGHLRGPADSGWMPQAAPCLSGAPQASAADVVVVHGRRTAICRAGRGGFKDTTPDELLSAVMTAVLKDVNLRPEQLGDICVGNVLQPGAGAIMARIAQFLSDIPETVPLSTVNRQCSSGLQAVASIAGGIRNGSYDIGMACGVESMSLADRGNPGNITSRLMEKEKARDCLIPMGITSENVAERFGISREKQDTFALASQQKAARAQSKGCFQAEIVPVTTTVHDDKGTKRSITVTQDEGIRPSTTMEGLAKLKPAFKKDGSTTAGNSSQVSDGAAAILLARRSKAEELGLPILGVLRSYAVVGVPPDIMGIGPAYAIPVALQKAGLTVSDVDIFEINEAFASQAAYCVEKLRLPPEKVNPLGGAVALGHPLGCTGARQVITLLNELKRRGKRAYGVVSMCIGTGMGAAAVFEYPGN
UniProt P13861, whole entry, looked up: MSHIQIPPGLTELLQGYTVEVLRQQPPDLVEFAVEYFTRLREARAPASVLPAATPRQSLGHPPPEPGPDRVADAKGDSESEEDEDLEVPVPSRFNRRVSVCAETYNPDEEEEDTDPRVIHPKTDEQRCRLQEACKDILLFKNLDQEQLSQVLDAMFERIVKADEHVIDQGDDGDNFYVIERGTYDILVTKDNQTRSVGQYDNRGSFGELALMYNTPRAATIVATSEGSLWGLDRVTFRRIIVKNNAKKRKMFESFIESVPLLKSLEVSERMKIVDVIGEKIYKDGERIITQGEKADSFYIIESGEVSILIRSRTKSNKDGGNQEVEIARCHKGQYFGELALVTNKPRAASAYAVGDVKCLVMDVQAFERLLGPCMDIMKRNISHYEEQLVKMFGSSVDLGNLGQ
UniProt P11940, whole entry, looked up: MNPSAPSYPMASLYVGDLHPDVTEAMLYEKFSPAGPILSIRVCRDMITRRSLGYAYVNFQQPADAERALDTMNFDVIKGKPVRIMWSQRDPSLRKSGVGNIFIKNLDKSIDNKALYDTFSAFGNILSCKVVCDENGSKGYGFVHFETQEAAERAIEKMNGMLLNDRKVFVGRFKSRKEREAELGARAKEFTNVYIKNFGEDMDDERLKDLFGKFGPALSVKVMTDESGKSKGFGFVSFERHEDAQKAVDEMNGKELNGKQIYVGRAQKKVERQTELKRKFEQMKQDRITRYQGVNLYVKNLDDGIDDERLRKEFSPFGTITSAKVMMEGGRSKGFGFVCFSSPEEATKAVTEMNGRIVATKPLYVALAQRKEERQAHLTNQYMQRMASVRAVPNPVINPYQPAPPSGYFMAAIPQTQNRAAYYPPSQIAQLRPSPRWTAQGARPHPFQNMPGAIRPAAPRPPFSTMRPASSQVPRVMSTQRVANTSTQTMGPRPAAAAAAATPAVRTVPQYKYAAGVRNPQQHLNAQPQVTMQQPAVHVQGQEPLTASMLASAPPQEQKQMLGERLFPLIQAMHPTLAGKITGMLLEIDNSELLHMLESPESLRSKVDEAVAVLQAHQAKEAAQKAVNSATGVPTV
UniProt P09543: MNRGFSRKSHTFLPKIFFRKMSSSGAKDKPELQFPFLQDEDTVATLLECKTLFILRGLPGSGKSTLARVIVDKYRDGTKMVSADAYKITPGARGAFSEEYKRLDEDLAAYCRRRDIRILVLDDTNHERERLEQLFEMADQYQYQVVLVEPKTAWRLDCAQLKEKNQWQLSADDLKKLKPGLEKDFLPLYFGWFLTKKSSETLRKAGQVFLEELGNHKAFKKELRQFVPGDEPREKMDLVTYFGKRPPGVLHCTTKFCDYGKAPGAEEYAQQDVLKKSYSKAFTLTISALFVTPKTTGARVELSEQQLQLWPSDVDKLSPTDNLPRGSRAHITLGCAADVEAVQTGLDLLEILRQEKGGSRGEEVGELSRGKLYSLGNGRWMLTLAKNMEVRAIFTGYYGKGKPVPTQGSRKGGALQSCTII
UniProt P11047: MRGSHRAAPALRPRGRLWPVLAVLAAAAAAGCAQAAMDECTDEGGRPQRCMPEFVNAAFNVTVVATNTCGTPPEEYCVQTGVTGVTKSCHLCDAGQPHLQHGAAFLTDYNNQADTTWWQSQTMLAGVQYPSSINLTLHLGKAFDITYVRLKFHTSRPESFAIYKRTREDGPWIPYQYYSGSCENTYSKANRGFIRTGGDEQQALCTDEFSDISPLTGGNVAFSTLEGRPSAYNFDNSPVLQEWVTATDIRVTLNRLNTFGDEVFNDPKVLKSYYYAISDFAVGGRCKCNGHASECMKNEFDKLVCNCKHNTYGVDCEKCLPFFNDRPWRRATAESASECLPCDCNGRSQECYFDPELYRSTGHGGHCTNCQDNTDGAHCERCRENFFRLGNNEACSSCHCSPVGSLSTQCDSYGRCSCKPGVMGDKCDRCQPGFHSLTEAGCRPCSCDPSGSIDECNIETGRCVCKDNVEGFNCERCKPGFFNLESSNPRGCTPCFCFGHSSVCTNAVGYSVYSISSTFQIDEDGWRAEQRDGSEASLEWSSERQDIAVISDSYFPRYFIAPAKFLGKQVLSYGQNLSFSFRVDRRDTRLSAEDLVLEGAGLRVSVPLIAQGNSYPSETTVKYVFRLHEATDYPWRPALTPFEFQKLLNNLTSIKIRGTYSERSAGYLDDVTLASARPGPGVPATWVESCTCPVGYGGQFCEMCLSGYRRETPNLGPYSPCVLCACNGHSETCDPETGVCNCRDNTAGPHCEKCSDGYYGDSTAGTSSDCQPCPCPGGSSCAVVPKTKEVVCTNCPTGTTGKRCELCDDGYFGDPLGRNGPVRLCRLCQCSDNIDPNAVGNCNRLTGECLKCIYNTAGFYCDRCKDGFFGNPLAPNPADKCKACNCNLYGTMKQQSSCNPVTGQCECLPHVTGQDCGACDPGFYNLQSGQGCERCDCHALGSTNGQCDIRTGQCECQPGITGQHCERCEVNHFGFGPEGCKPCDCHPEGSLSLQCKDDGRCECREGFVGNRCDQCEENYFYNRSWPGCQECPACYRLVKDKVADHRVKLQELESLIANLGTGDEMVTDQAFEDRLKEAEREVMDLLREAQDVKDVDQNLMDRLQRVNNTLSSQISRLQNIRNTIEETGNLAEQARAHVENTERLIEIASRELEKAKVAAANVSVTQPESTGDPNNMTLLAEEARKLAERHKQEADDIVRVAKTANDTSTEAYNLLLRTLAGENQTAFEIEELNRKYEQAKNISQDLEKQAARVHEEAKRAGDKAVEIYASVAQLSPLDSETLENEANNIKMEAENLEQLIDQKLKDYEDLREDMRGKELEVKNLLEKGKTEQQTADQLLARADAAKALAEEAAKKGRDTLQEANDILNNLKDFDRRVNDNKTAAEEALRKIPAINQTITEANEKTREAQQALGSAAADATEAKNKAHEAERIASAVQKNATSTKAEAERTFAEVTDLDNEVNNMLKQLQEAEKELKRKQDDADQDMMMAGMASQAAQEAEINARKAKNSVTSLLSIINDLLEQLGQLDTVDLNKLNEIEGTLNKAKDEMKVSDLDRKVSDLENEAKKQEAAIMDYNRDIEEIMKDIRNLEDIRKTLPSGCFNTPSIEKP
UniProt P08237: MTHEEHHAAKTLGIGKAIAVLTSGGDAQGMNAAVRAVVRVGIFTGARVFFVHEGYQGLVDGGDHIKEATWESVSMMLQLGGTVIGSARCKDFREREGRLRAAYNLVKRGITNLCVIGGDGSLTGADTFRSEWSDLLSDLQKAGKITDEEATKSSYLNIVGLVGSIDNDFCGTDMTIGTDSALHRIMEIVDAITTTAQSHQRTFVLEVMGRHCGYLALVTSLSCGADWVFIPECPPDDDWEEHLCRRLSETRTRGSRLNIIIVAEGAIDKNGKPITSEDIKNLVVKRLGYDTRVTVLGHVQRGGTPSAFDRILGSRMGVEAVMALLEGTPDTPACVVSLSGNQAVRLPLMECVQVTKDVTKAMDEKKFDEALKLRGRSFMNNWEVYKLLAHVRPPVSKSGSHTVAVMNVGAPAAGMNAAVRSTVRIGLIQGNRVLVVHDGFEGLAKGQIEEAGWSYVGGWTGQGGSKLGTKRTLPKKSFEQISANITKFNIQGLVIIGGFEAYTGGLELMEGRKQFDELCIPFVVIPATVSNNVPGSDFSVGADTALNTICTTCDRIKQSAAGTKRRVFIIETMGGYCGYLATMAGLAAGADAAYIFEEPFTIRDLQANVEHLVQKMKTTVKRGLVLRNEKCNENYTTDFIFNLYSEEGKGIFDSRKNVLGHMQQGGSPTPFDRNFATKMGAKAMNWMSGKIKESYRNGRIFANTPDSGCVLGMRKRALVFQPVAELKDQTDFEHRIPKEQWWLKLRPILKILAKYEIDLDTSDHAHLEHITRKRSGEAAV
UniProt P07814: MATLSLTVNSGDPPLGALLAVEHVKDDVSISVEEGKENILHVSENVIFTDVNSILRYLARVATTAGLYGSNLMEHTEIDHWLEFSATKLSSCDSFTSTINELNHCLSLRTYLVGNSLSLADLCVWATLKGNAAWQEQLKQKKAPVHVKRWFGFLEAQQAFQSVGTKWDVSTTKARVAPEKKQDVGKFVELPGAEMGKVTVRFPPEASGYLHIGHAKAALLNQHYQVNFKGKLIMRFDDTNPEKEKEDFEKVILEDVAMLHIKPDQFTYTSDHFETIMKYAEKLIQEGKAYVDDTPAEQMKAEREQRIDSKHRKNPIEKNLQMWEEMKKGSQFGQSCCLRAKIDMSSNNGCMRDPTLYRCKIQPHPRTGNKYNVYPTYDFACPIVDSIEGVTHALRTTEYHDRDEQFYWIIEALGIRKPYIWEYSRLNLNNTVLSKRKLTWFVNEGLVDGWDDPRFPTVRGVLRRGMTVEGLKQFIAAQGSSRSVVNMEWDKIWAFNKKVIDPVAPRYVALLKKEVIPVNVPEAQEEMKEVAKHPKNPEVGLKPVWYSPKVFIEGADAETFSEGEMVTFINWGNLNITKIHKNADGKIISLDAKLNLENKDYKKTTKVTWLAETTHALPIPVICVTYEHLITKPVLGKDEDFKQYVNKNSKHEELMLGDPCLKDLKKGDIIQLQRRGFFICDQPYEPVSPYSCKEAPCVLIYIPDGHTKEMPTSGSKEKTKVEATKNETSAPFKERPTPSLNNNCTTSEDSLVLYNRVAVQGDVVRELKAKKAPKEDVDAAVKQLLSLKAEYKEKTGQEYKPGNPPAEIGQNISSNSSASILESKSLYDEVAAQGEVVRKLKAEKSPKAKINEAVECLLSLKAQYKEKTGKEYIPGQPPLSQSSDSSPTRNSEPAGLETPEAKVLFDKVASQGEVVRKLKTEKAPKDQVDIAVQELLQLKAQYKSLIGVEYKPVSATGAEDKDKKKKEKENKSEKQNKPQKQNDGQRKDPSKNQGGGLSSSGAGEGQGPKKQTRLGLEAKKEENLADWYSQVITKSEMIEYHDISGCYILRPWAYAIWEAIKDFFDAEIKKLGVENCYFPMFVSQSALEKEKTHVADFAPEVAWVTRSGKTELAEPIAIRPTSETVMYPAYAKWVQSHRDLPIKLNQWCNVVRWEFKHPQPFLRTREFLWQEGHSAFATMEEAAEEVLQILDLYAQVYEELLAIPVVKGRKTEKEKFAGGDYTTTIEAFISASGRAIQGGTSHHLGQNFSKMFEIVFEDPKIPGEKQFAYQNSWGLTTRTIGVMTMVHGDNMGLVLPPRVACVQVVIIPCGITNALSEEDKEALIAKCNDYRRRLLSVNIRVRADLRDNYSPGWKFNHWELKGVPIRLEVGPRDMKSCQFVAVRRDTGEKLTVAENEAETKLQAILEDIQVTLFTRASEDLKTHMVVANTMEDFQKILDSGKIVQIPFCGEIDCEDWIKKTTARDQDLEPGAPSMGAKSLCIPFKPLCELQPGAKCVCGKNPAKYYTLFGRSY
UniProt P14625, whole entry, looked up: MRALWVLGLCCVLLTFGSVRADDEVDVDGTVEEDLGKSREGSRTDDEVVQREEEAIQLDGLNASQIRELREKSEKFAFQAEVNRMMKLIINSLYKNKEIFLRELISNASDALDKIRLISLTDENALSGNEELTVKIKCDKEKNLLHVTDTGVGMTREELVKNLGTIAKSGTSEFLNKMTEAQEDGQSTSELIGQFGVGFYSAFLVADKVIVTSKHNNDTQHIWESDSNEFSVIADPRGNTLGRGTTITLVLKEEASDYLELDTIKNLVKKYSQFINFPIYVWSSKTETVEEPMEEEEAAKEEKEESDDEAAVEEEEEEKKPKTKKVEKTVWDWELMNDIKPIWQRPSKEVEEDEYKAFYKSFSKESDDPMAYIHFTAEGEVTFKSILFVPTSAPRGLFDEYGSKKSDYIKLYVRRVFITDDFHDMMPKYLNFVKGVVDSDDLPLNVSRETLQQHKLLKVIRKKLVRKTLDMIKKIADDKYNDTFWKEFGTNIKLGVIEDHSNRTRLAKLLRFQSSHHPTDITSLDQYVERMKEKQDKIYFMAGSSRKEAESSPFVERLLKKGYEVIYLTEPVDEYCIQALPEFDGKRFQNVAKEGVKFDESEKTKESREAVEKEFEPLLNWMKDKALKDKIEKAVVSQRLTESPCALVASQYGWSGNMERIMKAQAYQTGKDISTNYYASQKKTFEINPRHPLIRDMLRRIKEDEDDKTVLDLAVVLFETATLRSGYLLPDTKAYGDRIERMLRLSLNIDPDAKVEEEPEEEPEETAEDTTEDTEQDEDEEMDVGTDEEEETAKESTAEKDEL

compound: COC(=O)C#Cc1ccccc1 [methyl 3-phenylpropiolate]; test: log2 ratio of iodoacetamide-alkyne labeling of the cysteine site, DMSO over compound (competition); higher = stronger covalent engagement of the cysteine by the compound, active = 1 or more; details: 500 µM; treatment time 1 h; system: HEK293T cell lysate
Method in brief: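 For each cysteine, the log2 competition ratio is mean control-channel reporter intensity over mean compound-channel reporter intensity. HEK293T lysate (2 mg/mL) was exposed to vehicle or electrophile (500 µM, 1 h, ambient temperature), labelled with iodoacetamide alkyne (1 h), clicked to sCIP-TMT reagents, digested overnight with trypsin at 37 °C, streptavidin-enriched and analysed by Orbitrap Eclipse LC-MS/MS with FAIMS and FragPipe. Cysteines quantified in only one of three replicates, each with duplicate channels, were excluded.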

log2 ratio of iodoacetamide-alkyne labeling, inactive:
UniProt P07947_C42 0.434
RPS2 C143 (UniProt P15880) 0.0382
ACAA1 C218 (UniProt P09110) 0.311
PRKAR2A C101 (UniProt P13861) 0.533
EEF2 C388 (UniProt P13639) 0.185
PABPC1 C132 (UniProt P11940) 0.0505
CNP C158 (UniProt P09543) 0.417
ACAA1 C87 (UniProt P09110) 0.141
GSTP1 C48 (UniProt P09211) -0.15
LAMC1 C1600 (UniProt P11047) 0.279
CAPN2 C39 (UniProt P17655) -0.194
PFKM C114 (UniProt P08237) -0.169
EPRS C856 (UniProt P07814) 0.0127
ANXA6 C248 (UniProt P08133) -0.142
HSP90B1 C645 (UniProt P14625) -0.0466

Not a retest: entries from further up.
log2 ratio of iodoacetamide-alkyne labeling, inactive:
ACAA1 C87 (UniProt P09110) 0.141
GSTP1 C48 (UniProt P09211) -0.15
LAMC1 C1600 (UniProt P11047) 0.279
